Where a chain is given by its changes, count along the chain named. Names may count otherwise. No constants are given. Whether binding was seen depends on the method and setting. Binding seen in cells or lysates may run through a third protein. A result given as binding can be weak or reduced; the word gives no strength. For part of these data: Where a sequence is shown, tags or fusion partners need not be part of it.

Here are results for three molecules from publication PMC5249250.

Experiment [1] deals with HA-PUB17. The experiment is described as follows: co-IP; tagged proteins co-expressed by agroinfiltration in leaves; extract after 3 days incubated with epitope antibody agarose conjugates (anti-GFP or anti-HA) 3-4 hours at 4°C; blots with anti-HA and anti-GFP; MG132 treatment for POB1 with HA-PUB17 (Fig 7E).
Experiment [2] concerns the target YC-PUB17. The experiment is described as follows: split reporter; BiFC with split YFP (YN, YC) co-expressed in N. benthamiana leaves, MG132 (100 μM) infiltrated 5 hours before confocal imaging.

B1: POB1 expressed in planta (HA-POB1 and GFP-POB1) (protein, UniProt Q9FPW6 1-561)
chain: MRGTTENTDLFDPKTQMDPDFTRHGSSSDGDFGFAFNDSNFSDRLLRIEIMGGPSDSRSEVEGCTSIADWARHRKRRREDIKKESGVTISDIVACPEEQILTDEQPDMDGCPGGENPDDEGGEAMVEEALSGDEEETSSEPNWGMDCSTVVRVKELHISSPILAAKSPFFYKLFSNGMRESEQRHVTLRINASEEAALMELLNFMYSNAVSVTTAPALLDVLMAADKFEVASCMRYCSRLLRNMPMTPESALLYLELPSSVLMAKAVQPLTDAAKQFLAARYKDITKFHEEVMSLPLAGIEAILSSDELQIASEDAVYDFILKWARAQYPCLEERREILGSRLALSIRFPFMTCRKLKKVLTCSDFEHEIASKLVLEALFFKAEAPHRQRSLASEESASLNRRLIERAYKYRPVKVVEFELPRPQCVVYLDLKREECGGLFPSGRVYSQAFHLGGQGFFLSAHCNMDQQSSFHCFGLFLGMQEKGSVSFGVDYEFSARSKPAEDFISKYKGNYTFTGGKAVGYRNLFGVPWTSFIAEDSQYFINGILHLRAELTIKRSTDP
As to B1, in experiment [1], the binding result was “binds”.

B2: YN-POB1 (protein, UniProt Q9FPW6 1-561)
chain: B1 chain
Take B2: the binding entry in experiment [2] is reported as “binds”.

B3: POB1^D146A expressed in planta (HA-POB1^D146A and GFP-POB1^D146A) (protein, UniProt Q9FPW6 1-561)
chain: B1 chain with D146A
B3: the binding result in experiment [1] was “binds weakly”.
